Out of some 1,600 compounds screened, about 20 (1%) showed an effect of 50% or more. The list shows a part of the results.

The assay deals with T1, E. coli pLC1021 (luc-trpAt trans-translation reporter).
T1 construct: pLC1021 luc-trpAt reporter strain
Also on record: species or system Escherichia coli pLC1021; luc-trpAt non-stop luciferase reporter; luminescence rises when trans-translation is inhibited; normalized to KKL-35 and DMSO. Conditions: reporter signal, KKL-35 = 100%; rise means trans-translation inhibition; 2 h, 20 µM. A digest of the protocol:
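Cells carrying the non-stop luc-trpAt reporter were exposed to 20 µM compound for 2 h at room temperature, then Bright-Glo was added and luminescence read at 560 nm after 10 min. Signals were normalised per plate to DMSO and 20 µM KKL-35 wells. Hits: activity one SD above the median; ≥2 biological repeats averaged.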
On to `Clc1ccc(CNCc2c[nH]nc2-c2ccc(-c3ccccc3)cc2)s1` [KKL-1155], for which the “% activation” value stood at 0%.

Turning to `Cc1c(C(=O)NC(=S)Nc2ccc(Oc3ccc(Cl)cc3)cc2)cccc1[N+](=O)[O-]` [KKL-0735], the “% activation” value came out at 17%.

Turning to `O=C(NNC(=O)c1ccc([N+](=O)[O-])o1)c1ccc2ccccc2c1` [KKL-1882], the “% activation” value is on record as 0%.

On to `C#CCOc1cccc(CN2CCn3cccc3C2CC)c1` (stereo not shown) [KKL-0516], for which the “% activation” value stood at 0%.

Turning to `N=c1c2c(-c3ccccc3)c(-c3ccccc3)n(Cc3ccco3)c2ncn1Cc1ccccc1` [KKL-0887], the “% activation” value is listed as 0%.

`COCc1nnc(NC(=O)c2cc(-c3ccc(F)cc3)n(C)n2)s1` [KKL-0683]: the “% activation” value came to 0%.

Regarding `COc1ccccc1C(=O)NNC(=S)NC(=O)c1ccc(-c2ccccc2)cc1` [KKL-0561], the “% activation” value was 11%.

As to `CCc1ccc(Nc2nnc(SCc3cc(C)on3)s2)cc1` [KKL-1791], the “% activation” value is reported as 0%.

As for `O=Cc1ccc(C(=O)N2CCCC(C(=O)c3ccc(Oc4ccccc4)cc3)C2)cc1` (stereo not shown) [KKL-1187], the “% activation” value is listed as 2%.

`O=C(Nc1nc(-c2ccccc2F)cs1)c1cnc(N2CCCCC2)nc1` [KKL-0331]: the “% activation” value came to 2%.

For the molecule `COc1cc(OC)c(-c2nn3c(C4CCCCC4)nnc3s2)cc1OC` [KKL-1017], the “% activation” value was 1%.

For the molecule `CCOC(=O)COc1ccc2c(=O)c(-c3ccccc3)coc2c1` [KKL-1516], the “% activation” value turned out to be 4%.

Consider `CCOC(=O)Cn1cc(C#N)c2cccc(CC)c21` [KKL-1580], for which the “% activation” value stood at 3%.

In the case of `O=C(Nc1ccc(C(F)(F)F)cc1)Nc1cccc(F)c1` [KKL-1574], the “% activation” value was determined as 0%.

With `Cc1ccc(C2=Nc3ccccc3SC(c3cccc([N+](=O)[O-])c3)C2)cc1` (stereo not shown) [KKL-1203], the “% activation” value is given as 6%.

Turning to `CCC(C)Oc1ccc(C(=O)NC(=S)Nc2ccc(NC(=O)c3ccco3)cc2)cc1` (stereo not shown) [KKL-1413], the “% activation” value worked out at 4%.

On to `CCc1ccccc1N1C(=O)c2cccc3c([N+](=O)[O-])ccc(c23)C1=O` [KKL-1363], for which the “% activation” value was found to be 0%.

Take `Fc1cccc(Oc2cc(C3CCCNC3)nc(-c3ccncc3)n2)c1` (stereo not shown) [KKL-1670]: the “% activation” value was 3%.

Regarding `COc1ccc(-c2ncc(CN3CCCC(C(=O)c4cccc(OC(C)C)c4)C3)cn2)cc1` (stereo not shown) [KKL-0633], the “% activation” value was 0%.

In the case of `NC(=O)c1ccc(NC(=O)COC(=O)c2c3c(nc4ccccc24)/C(=C\c2cccs2)CCC3)cc1` [KKL-0818], the “% activation” value is listed as 0%.

For `Cc1ccc(C(=O)NC(=S)Nc2ccc(S(=O)(=O)NC(C)C)cc2)cc1Br` [KKL-0593], the “% activation” value is reported as 0%.

As to `Cc1cc(Cl)ccc1NC(=O)CCc1ccc(S(=O)(=O)NCC(C)C)cc1` [KKL-1451], the “% activation” value is given as 2%.

As to `Cc1ccc(CN(CCCn2ccnc2)Cc2cccc(Cl)c2Cl)o1` [KKL-1195], the “% activation” value came to 17%.

As to `CCOC(=O)c1ccc(NC(=O)C2C(=O)N(C)C3(C)CC2c2ccccc2O3)cc1` (stereo not shown) [KKL-1246], the “% activation” value came to 0%.

On to `CCCOC(=O)c1ccc(NC(=S)NC(=O)c2ccc(Cl)cc2)cc1` [KKL-0761], for which the “% activation” value is listed as 3%.

On to `CC(NCC(O)COc1ccccc1C(C)(C)C)c1ccccc1` (stereo not shown) [KKL-0780], for which the “% activation” value was 17%.

`Cc1ccc2[nH]c3c(c2c1)CCCC3NCCCOc1ccc(F)cc1` (stereo not shown) [KKL-0771]: the “% activation” value came to 84%.

Turning to `Cc1cc(OCC(=O)NC2C3CC4CC(C3)CC2C4)cc(C)c1Br` (stereo not shown) [KKL-1295], the “% activation” value stood at 0%.

With `O=C(Oc1cccc2cccnc12)c1cc2ccccc2oc1=O` [KKL-0571], the “% activation” value came out at 8%.

As to `S=C(NCCCN1CCN(c2ccc(Cl)cc2)CC1)Nc1cccc(Cl)c1` [KKL-0444], the “% activation” value worked out at 10%.

`COc1ccc2c(c1)C(O)CC1(CCN(CC(O)c3ccc4c(c3)CCCC4)CC1)O2` (stereo not shown) [KKL-0556]: the “% activation” value was found to be 0%.

Regarding `Cc1ccc(C)c(N2C(=O)c3cccc4c([N+](=O)[O-])ccc(c34)C2=O)c1` [KKL-1360], the “% activation” value turned out to be 0%.

`O=c1oc(-c2ccccc2)cc(Cl)c1Cl` [KKL-0741]: the “% activation” value was found to be 0%.

On to `Cn1nc([N+](=O)[O-])nc1Sc1ncnn1-c1ccccc1` [KKL-1548], for which the “% activation” value was 0%.

Consider `CC(=O)c1ccc(NC(=O)NC(C)C23CC4CC(CC(C4)C2)C3)cc1` (stereo not shown) [KKL-1533], for which the “% activation” value is 0%.

As for `CSc1ccc(-c2nc(CN3CCN(c4ccc(Cl)cn4)CC3)c(C)o2)cc1` [KKL-0629], the “% activation” value was found to be 0%.

With `CN(C)c1ccc(C(O)(c2ccc(N(C)C)cc2)c2ccc(N(C)C)cc2)cc1` [KKL-1495], the “% activation” value was 0%.

For `CC1(C)N=C(N)N=C(N)N1OCCc1ccc2ccccc2c1` [KKL-1717], the “% activation” value was 20%.

Take `COc1ccc2[nH]c(CNCCc3nc4cc(Cl)ccc4[nH]3)cc2c1` [KKL-1215]: the “% activation” value came out at 0%.

Take `Cc1ccc(CNC(=O)c2cnn3c2NC(c2ccc(C)cc2)CC3C(F)F)cc1` (stereo not shown) [KKL-1766]: the “% activation” value worked out at 0%.

Turning to `Cn1ccnc1CNCCS(=O)(=O)c1cccc(Nc2ccc(-c3cccc(F)c3)cn2)c1` [KKL-1860], the “% activation” value was 2%.

In the case of `COC(=O)[C@@H]1Cc2c([nH]c3ccccc23)[C@H]2C[C@@H](NC(C)C)C[C@@H](c3cccc(Cl)c3)N21` [KKL-1594], the “% activation” value was 1%.

As to `COC(=O)c1sccc1NC(=O)c1c(F)c(F)c(F)c(F)c1F` [KKL-1479], the “% activation” value is recorded as 0%.

As for `CCCn1c(NC(=O)c2cccc(C)c2C)nc2ccccc21` [KKL-0829], the “% activation” value turned out to be 3%.

For the molecule `CSc1ncc(CN2CCCC(C(=O)c3ccc(-c4ccccc4)c(F)c3)C2)cn1` (stereo not shown) [KKL-0344], the “% activation” value was determined as 0%.

Turning to `Cc1cc2c(cc1Cl)C(O)CC1(CCN(CC(O)c3ccc(Cl)cc3)CC1)O2` (stereo not shown) [KKL-0936], the “% activation” value is reported as 2%.

`CC1C(c2ccccc2)N(C)C(c2ccccc2)CC1(O)c1ccccc1` (stereo not shown) [KKL-1046]: the “% activation” value was determined as 0%.

In the case of `NC(=O)C1Cc2ccc(C(=O)c3cccs3)cc2S1` (stereo not shown) [KKL-1835], the “% activation” value stood at 0%.

As to `Cc1cccc(N=C(S)NCCN2CCN(c3ccc(F)c(Cl)c3)CC2)c1C` [KKL-1290], the “% activation” value was found to be 0%.

As to `Cc1cccc(Nc2cc(Cl)c3nonc3c2[N+](=O)[O-])c1C` [KKL-0853], the “% activation” value is 0%.

Take `CCCc1cc(NCCCn2ccnc2)n2nc(C)c(-c3ccccc3)c2n1` [KKL-0902]: the “% activation” value was found to be 17%.

In the case of `CCOC(=O)C1=C(c2ccc(C)cc2)C(=O)c2ccccc2C1=O` [KKL-1404], the “% activation” value was 6%.

With `O=Cc1ccc2oc3nc4n(c(=O)c3c(=O)c2c1)CCCS4` [KKL-0997], the “% activation” value was 8%.

In the case of `CCOC(=O)Cn1cc(/C=C(/C#N)c2nc3cc(OC)ccc3[nH]2)c2ccccc21` [KKL-0602], the “% activation” value turned out to be 2%.

On to `OC(CN1CCC2(CC1)CC(O)c1cc(F)ccc1O2)c1ccc2c(c1)CCCC2` (stereo not shown) [KKL-0925], for which the “% activation” value turned out to be 0%.

On to `CC1CCN(C(=O)COC(=O)c2cc3ccccc3cc2O)CC1` [KKL-0819], for which the “% activation” value came out at 0%.

`CC(C)(C)c1ccc(Cn2cnc([N+](=O)[O-])n2)cc1` [KKL-1556]: the “% activation” value was determined as 0%.

As for `CC(=O)Oc1cccc2ccc(/C=C/c3ccc(Cl)cc3)nc12` [KKL-1284], the “% activation” value is 0%.

With `CCc1ccc(O)c(NC(=S)NC(=O)c2cccc3ccccc23)c1` [KKL-1439], the “% activation” value is 1%.

On to `O=C(Nc1nc(-c2ccccn2)cs1)C1CCCC1` [KKL-0791], for which the “% activation” value is recorded as 0%.

With `O=C(CSc1ccc(Br)cc1)Nc1cccc(Cl)c1` [KKL-0413], the “% activation” value is 8%.

Turning to `O=C(c1ccccn1)N1CCCCC1c1nc(Nc2ccccc2)cc(-c2ccncc2)n1` (stereo not shown) [KKL-1263], the “% activation” value came out at 10%.

For `O=C(Nc1nnc(SCc2ccc(F)cc2)s1)c1ccccn1` [KKL-0812], the “% activation” value worked out at 14%.

Regarding `Cc1ccc2nc(C)c(C(=O)NCc3ccco3)n2c1` [KKL-1756], the “% activation” value is reported as 0%.

Consider `NC1CCc2nc(-c3ccncc3)nc(Nc3ccc(C(F)(F)F)cc3)c2C1` (stereo not shown) [KKL-0539], for which the “% activation” value is recorded as 620%.

As to `S=C(NCc1ccc(Cl)cc1)N1CCN(C/C=C/c2ccccc2)CC1` [KKL-1331], the “% activation” value worked out at 0%.

For the molecule `O=C(c1cc(COc2ccc(F)cc2Cl)on1)N1CCCCO1` [KKL-0558], the “% activation” value is listed as 0%.

With `CC(NC(=O)c1cc2cc(F)ccc2[nH]1)c1cc(O)n2nc(C3CCOCC3)cc2n1` (stereo not shown) [KKL-0691], the “% activation” value worked out at 4%.

Consider `CC(=O)N(C)c1ccc(OCC(O)Cn2c3ccc(Cl)cc3c3cc(Cl)ccc32)cc1` (stereo not shown) [KKL-0751], for which the “% activation” value was determined as 7%.

Regarding `O=C(/C=C\c1ccccc1)Oc1cccc2cccnc12` [KKL-1634], the “% activation” value came out at 0%.

In the case of `CC(C)(C)C(=O)N1CCc2nc(N3CCCC3)nc(Oc3ccc(F)cc3)c2C1` [KKL-1348], the “% activation” value stood at 0%.

For the molecule `CCC(C)c1ccc(OCCn2ccnc2)cc1` (stereo not shown) [KKL-1307], the “% activation” value was 13%.

For `Clc1ccc(C2=CC(c3ccc(Cl)cc3)n3nnnc3N2)cc1` (stereo not shown) [KKL-0438], the “% activation” value is given as 0%.

With `Cc1cc(CN2CCC3(CC2)OCCc2sccc23)oc1C` [KKL-1725], the “% activation” value was determined as 0%.

For the molecule `CN(C)c1ccc(-c2nnc(SCC(=O)OCc3ccccc3)o2)cc1` [KKL-1259], the “% activation” value came to 11%.

`Cc1cc(OCC(=O)Nc2ccccc2)c2cc(Br)ccc2n1` [KKL-1816]: the “% activation” value amounted to 9%.

In the case of `Cc1nc2ccccn2c1C(=O)NCc1ccc(Cl)cc1` [KKL-1748], the “% activation” value was found to be 13%.

Take `CCC1CCCCN1C(=S)NC(=O)c1ccc(F)cc1` (stereo not shown) [KKL-0915]: the “% activation” value stood at 0%.

Regarding `COc1ccc(C(=O)Nc2cc(OC)c(NC(=O)c3ccco3)cc2OC)cc1` [KKL-1627], the “% activation” value is recorded as 0%.

On to `Cc1cccc(C2c3[nH]c4ccccc4c3CCN2C(=O)c2csc3nc(C)cn23)c1` (stereo not shown) [KKL-0642], for which the “% activation” value was determined as 3%.

For `CC(C)OC1c2ncc(-c3ccccc3)cc2Sc2nc(-c3cccnc3)nn21` (stereo not shown) [KKL-0343], the “% activation” value came to 0%.

Turning to `CC(C)Cc1ccc(CN2CCCC(NC(=O)c3ccc4c(c3)no[n+]4[O-])C2)cc1` (stereo not shown) [KKL-0639], the “% activation” value worked out at 5%.

Consider `O=C(CCCSc1ccccc1)Nc1nc(-c2ccccn2)cs1` [KKL-0800], for which the “% activation” value is reported as 1%.

As to `CC(C)C(=O)Nc1ccc(C(=O)Oc2ccccc2)c(O)c1` [KKL-0776], the “% activation” value is given as 0%.

Turning to `Cc1cccc(-n2nc([N+](=O)[O-])c(NCCC3=CCCCC3)[n+]2[O-])c1` [KKL-0576], the “% activation” value is 6%.

The record behind these values is publication PMC12548414.
